Results taken from the supplement of paper PMC7661543.
± gives the standard deviation of the averaged measurements. The effect of the compound repeats well; differences between the knockouts mostly do not.

System: SKBR3
Experiment: relative cell number vs DMSO control (72 h) (% of DMSO); higher = less growth inhibition (more cells)
Protocol: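 QMAP-Seq: a pool of 5 breast cancer cell lines (ZR-75-1, SKBR3, HCC-38, MDA-MB-231, BT-20), each carrying 12 doxycycline-inducible Cas9 sgRNA perturbations (11 knockouts plus non-targeting sgNT), was treated with compounds for 72 h at four 10-fold doses (10 nM-10 uM or 1 nM-1 uM range). Barcodes were amplified and sequenced, and cell number was interpolated from 293T spike-in standard curves. The result is expressed as % of the median of DMSO wells. Two biological replicates.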

C[C@@H](Nc1cc(F)cc(F)c1)c1cc(C(=O)N(C)C)cc2c(=O)cc(N3CCOCC3)oc12 [AZD8186]
Conditions	relative cell number
sgRNA knockout: sgATF3, 10 nM	110 ± 43
sgRNA knockout: sgATF3, 100 nM	115 ± 15
sgRNA knockout: sgATF3, 1000 nM	96.9 ± 3
sgRNA knockout: sgATF3, 10000 nM	44.2 ± 9.3
sgRNA knockout: sgATF4, 10 nM	96.9 ± 8.5
sgRNA knockout: sgATF4, 100 nM	103 ± 4.9
sgRNA knockout: sgATF4, 1000 nM	78.9 ± 4.9
sgRNA knockout: sgATF4, 10000 nM	51.5 ± 7.5
sgRNA knockout: sgATF6, 10 nM	90.6 ± 11
sgRNA knockout: sgATF6, 100 nM	92.3 ± 1.9
sgRNA knockout: sgATF6, 1000 nM	80.1 ± 3.4
sgRNA knockout: sgATF6, 10000 nM	54.2 ± 16
sgRNA knockout: sgATG7, 10 nM	105 ± 12
sgRNA knockout: sgATG7, 100 nM	125 ± 16
sgRNA knockout: sgATG7, 1000 nM	82.7 ± 2.6
sgRNA knockout: sgATG7, 10000 nM	63.7 ± 10
sgRNA knockout: sgERN1, 10 nM	127 ± 23
sgRNA knockout: sgERN1, 100 nM	143 ± 47
sgRNA knockout: sgERN1, 1000 nM	83.7 ± 4.1
sgRNA knockout: sgERN1, 10000 nM	56 ± 15
sgRNA knockout: sgHSF1, 10 nM	102 ± 2.8
sgRNA knockout: sgHSF1, 100 nM	88.1 ± 28
sgRNA knockout: sgHSF1, 1000 nM	77.2 ± 11
sgRNA knockout: sgHSF1, 10000 nM	43.6 ± 8.9
sgRNA knockout: sgHSF2, 10 nM	97.3 ± 31
sgRNA knockout: sgHSF2, 100 nM	101 ± 3
sgRNA knockout: sgHSF2, 1000 nM	83.7 ± 25
sgRNA knockout: sgHSF2, 10000 nM	48.4 ± 7.5
sgRNA knockout: sgKEAP1, 10 nM	107.7 ± 0.17
sgRNA knockout: sgKEAP1, 100 nM	114 ± 8.9
sgRNA knockout: sgKEAP1, 1000 nM	75.2 ± 24
sgRNA knockout: sgKEAP1, 10000 nM	45.7 ± 12
sgRNA knockout: sgNFE2L2, 10 nM	80.1 ± 20
sgRNA knockout: sgNFE2L2, 100 nM	108 ± 2
sgRNA knockout: sgNFE2L2, 1000 nM	81.1 ± 17
sgRNA knockout: sgNFE2L2, 10000 nM	51.2 ± 18
sgRNA knockout: sgSLC35F2, 10 nM	101 ± 25
sgRNA knockout: sgSLC35F2, 100 nM	89.3 ± 22
sgRNA knockout: sgSLC35F2, 1000 nM	77.9 ± 6.9
sgRNA knockout: sgSLC35F2, 10000 nM	42.3 ± 14
sgRNA knockout: sgXBP1, 10 nM	106 ± 45
sgRNA knockout: sgXBP1, 100 nM	116 ± 4.8
sgRNA knockout: sgXBP1, 1000 nM	93.9 ± 26
sgRNA knockout: sgXBP1, 10000 nM	62.5 ± 2.4

Cc1ccccc1-n1c(Cn2cnc3c(N)ncnc32)nc2cccc(C)c2c1=O
Conditions	relative cell number
sgRNA knockout: sgATF3, 10 nM	130 ± 30
sgRNA knockout: sgATF3, 100 nM	127 ± 2.7
sgRNA knockout: sgATF3, 1000 nM	114 ± 34
sgRNA knockout: sgATF3, 10000 nM	110 ± 27
sgRNA knockout: sgATF4, 10 nM	89 ± 13
sgRNA knockout: sgATF4, 100 nM	110 ± 13
sgRNA knockout: sgATF4, 1000 nM	91.4 ± 9.4
sgRNA knockout: sgATF4, 10000 nM	90.1 ± 21
sgRNA knockout: sgATF6, 10 nM	75.5 ± 4.1
sgRNA knockout: sgATF6, 100 nM	96.2 ± 9.5
sgRNA knockout: sgATF6, 1000 nM	77.94 ± 0.39
sgRNA knockout: sgATF6, 10000 nM	70.2 ± 11
sgRNA knockout: sgATG7, 10 nM	110 ± 6.2
sgRNA knockout: sgATG7, 100 nM	108 ± 21
sgRNA knockout: sgATG7, 1000 nM	102 ± 24
sgRNA knockout: sgATG7, 10000 nM	117 ± 24
sgRNA knockout: sgERN1, 10 nM	111.9 ± 0.4
sgRNA knockout: sgERN1, 100 nM	124.7 ± 1.2
sgRNA knockout: sgERN1, 1000 nM	90.9 ± 26
sgRNA knockout: sgERN1, 10000 nM	118 ± 48
sgRNA knockout: sgHSF1, 10 nM	84.2 ± 12
sgRNA knockout: sgHSF1, 100 nM	97.4 ± 21
sgRNA knockout: sgHSF1, 1000 nM	87.23 ± 0.49
sgRNA knockout: sgHSF1, 10000 nM	102 ± 11
sgRNA knockout: sgHSF2, 10 nM	97.7 ± 17
sgRNA knockout: sgHSF2, 100 nM	107 ± 46
sgRNA knockout: sgHSF2, 1000 nM	82.5 ± 6.8
sgRNA knockout: sgHSF2, 10000 nM	89.5 ± 18
sgRNA knockout: sgKEAP1, 10 nM	78.1 ± 1.1
sgRNA knockout: sgKEAP1, 100 nM	91.3 ± 27
sgRNA knockout: sgKEAP1, 1000 nM	97 ± 9.2
sgRNA knockout: sgKEAP1, 10000 nM	95.98 ± 0.38
sgRNA knockout: sgNFE2L2, 10 nM	103 ± 27
sgRNA knockout: sgNFE2L2, 100 nM	130 ± 20
sgRNA knockout: sgNFE2L2, 1000 nM	83.3 ± 8.9
sgRNA knockout: sgNFE2L2, 10000 nM	103.7 ± 0.2
sgRNA knockout: sgSLC35F2, 10 nM	94.5 ± 16
sgRNA knockout: sgSLC35F2, 100 nM	103 ± 21
sgRNA knockout: sgSLC35F2, 1000 nM	81.6 ± 12
sgRNA knockout: sgSLC35F2, 10000 nM	92.3 ± 22
sgRNA knockout: sgXBP1, 10 nM	115 ± 26
sgRNA knockout: sgXBP1, 100 nM	112 ± 22
sgRNA knockout: sgXBP1, 1000 nM	104 ± 20
sgRNA knockout: sgXBP1, 10000 nM	118 ± 2.3

COc1cc2nccc(Oc3ccc(NC(=O)Nc4cc(C)on4)c(Cl)c3)c2cc1OC [Tivozanib]
Conditions	relative cell number
sgRNA knockout: sgATF3, 10 nM	97.3 ± 3.1
sgRNA knockout: sgATF3, 100 nM	97.1 ± 12
sgRNA knockout: sgATF3, 1000 nM	107 ± 31
sgRNA knockout: sgATF3, 10000 nM	79.5 ± 5.8
sgRNA knockout: sgATF4, 10 nM	89.24 ± 0.38
sgRNA knockout: sgATF4, 100 nM	70.5 ± 6.9
sgRNA knockout: sgATF4, 1000 nM	91.9 ± 6
sgRNA knockout: sgATF4, 10000 nM	73.1 ± 1.9
sgRNA knockout: sgATF6, 10 nM	97.8 ± 6.4
sgRNA knockout: sgATF6, 100 nM	85.3 ± 10
sgRNA knockout: sgATF6, 1000 nM	94 ± 5
sgRNA knockout: sgATF6, 10000 nM	72.4 ± 7.6
sgRNA knockout: sgATG7, 10 nM	114 ± 12
sgRNA knockout: sgATG7, 100 nM	80.45 ± 0.24
sgRNA knockout: sgATG7, 1000 nM	88.7 ± 9.2
sgRNA knockout: sgATG7, 10000 nM	66.6 ± 5.2
sgRNA knockout: sgERN1, 10 nM	93.2 ± 5.9
sgRNA knockout: sgERN1, 100 nM	91.016 ± 0.055
sgRNA knockout: sgERN1, 1000 nM	96.6 ± 17
sgRNA knockout: sgERN1, 10000 nM	72.3 ± 1.7
sgRNA knockout: sgHSF1, 10 nM	98.3 ± 2.2
sgRNA knockout: sgHSF1, 100 nM	72.9 ± 13
sgRNA knockout: sgHSF1, 1000 nM	97.4 ± 8.1
sgRNA knockout: sgHSF1, 10000 nM	74.4 ± 9.2
sgRNA knockout: sgHSF2, 10 nM	106 ± 17
sgRNA knockout: sgHSF2, 100 nM	96.2 ± 26
sgRNA knockout: sgHSF2, 1000 nM	94.4 ± 17
sgRNA knockout: sgHSF2, 10000 nM	74.4 ± 5.1
sgRNA knockout: sgKEAP1, 10 nM	101 ± 18
sgRNA knockout: sgKEAP1, 100 nM	85.2 ± 8.6
sgRNA knockout: sgKEAP1, 1000 nM	105 ± 18
sgRNA knockout: sgKEAP1, 10000 nM	65.9 ± 1.7
sgRNA knockout: sgNFE2L2, 10 nM	82.2 ± 16
sgRNA knockout: sgNFE2L2, 100 nM	85.7 ± 19
sgRNA knockout: sgNFE2L2, 1000 nM	91.3 ± 8.2
sgRNA knockout: sgNFE2L2, 10000 nM	79.6 ± 10
sgRNA knockout: sgSLC35F2, 10 nM	80.2 ± 14
sgRNA knockout: sgSLC35F2, 100 nM	103 ± 2.7
sgRNA knockout: sgSLC35F2, 1000 nM	110 ± 38
sgRNA knockout: sgSLC35F2, 10000 nM	86.6 ± 3
sgRNA knockout: sgXBP1, 10 nM	90.7 ± 11
sgRNA knockout: sgXBP1, 100 nM	98.83 ± 0.59
sgRNA knockout: sgXBP1, 1000 nM	82.9 ± 3
sgRNA knockout: sgXBP1, 10000 nM	73 ± 15
